# Source: PMC11687307, “The calcium-binding protein S100A1 binds to titin’s N2A insertion sequence in a pH-dependent manner” (The Journal of General Physiology, 2024)
# No constants are given. Whether binding was seen depends on the method and setting. Some results given as binding are weak or reduced against the parent protein; the word gives no strength.
# B1: S100A1 (mouse) (natural protein)
# chain: MGSELESAMETLINVFHAHSGQEGDKYKLSKKELKDLLQTELSGFLDVQKDADAVDKVMKELDENGDGEVDFKEYVVLVAALTVACNNFFWETS
# notes: S100A1, mouse; No tag is named; source: E. coli BL21(DE3), purified (Capto-Q anion exchange, phenyl Sepharose)
# B2: UN2A, unique insertion sequence of the N2A region of titin (mouse, amino acids 8539-8655) (domain or fragment)
# chain: DERKKQEKIEGDLRAMLKKTPALKKGSGEEEEIDIMELLKNVDPKEYEKYARMYGITDFRGLLQAFELLKQSQEEETHRLEIEELEKSERDEKEFEELVAFIQQRLTQTEPVTLIKD
# notes: titin, mouse, UN2A region between Ig domains I80 and I81, amino acids 8539-8655; Gene synthesised by GeneArt; No tag is named; source: E. coli BL21(DE3) pLysS, purified (Capto-Q anion exchange, SEC)
# Columns and labels:
# [1] = target: UN2A-FRET (UN2A inserted between CFP and YFP) (mouse); assay: SEC; HPLC on TSKgel G2000SWxl; UN2A-FRET 20 µM mixed with S100A1 0 to 25 µM, 30 min at room temperature; 150 mM NaCl, 20 mM HEPES, 1 mM CaCl2 (pCa 3), pH 7.4; both purified
# [2] = target: UN2A-FRET (UN2A inserted between CFP and YFP) (mouse); assay: condition: only without Ca^2+ (pCa 10, 1 mM EGTA), pH 7.4; 1 µM; FRET or BRET; FRET within the CFP-UN2A-YFP reporter with and without S100A1; protein at 1 µM; 10 mM HEPES, 100 mM NaCl, 1 mM EGTA (pCa 10), pH 7.4; 1 h, room temperature; excitation 433 nm; both purified
# [3] = target: UN2A-FRET (UN2A inserted between CFP and YFP) (mouse); assay: condition: only without Ca^2+ (pCa 10, 1 mM EGTA), pH 6; 1 µM; FRET or BRET; FRET within the CFP-UN2A-YFP reporter with and without S100A1; protein at 1 µM; 10 mM HEPES, 100 mM NaCl, 1 mM EGTA (pCa 10), pH 6; 1 h, room temperature; excitation 433 nm; both purified
# [4] = target: UN2A-FRET (UN2A inserted between CFP and YFP) (mouse); assay: condition: only without Ca^2+ (pCa 10, 1 mM EGTA); S100A1 up to 25 µM; SEC; HPLC on TSKgel G2000SWxl; UN2A-FRET 20 µM mixed with S100A1 0 to 25 µM, 30 min at room temperature; 150 mM NaCl, 20 mM HEPES, 1 mM EGTA (pCa 10), pH 7.4; both purified
# S100A1 (mouse) = target: B1; assay: co-IP; purified proteins, 500 µg each, with anti-S100A1 antibody overnight at 4°C, captured on magnetic beads; 250 mM NaCl, 20 mM HEPES, 1 mM Ca^2+, pH 6; SDS-PAGE, silver staining, densitometry; both purified
binder,measurement,setting,value
B1,binding,[1],binds weakly
same,binding,[2],no binding
same,binding,[3],no binding
same,binding,[4],no binding
B2,binding,S100A1 (mouse),binds weakly
